According to the supplement of paper PMC5836539:
± gives the standard deviation of the averaged measurements. Most values lie within the scatter of the assay; repeated measurements hardly agree.

The chains behind the UniProt entries cited, without tags or fusion partners. Where a name states a change or a piece, a line headed by the entry shows the natural chain unless it says otherwise.
UniProt Q9BWU0: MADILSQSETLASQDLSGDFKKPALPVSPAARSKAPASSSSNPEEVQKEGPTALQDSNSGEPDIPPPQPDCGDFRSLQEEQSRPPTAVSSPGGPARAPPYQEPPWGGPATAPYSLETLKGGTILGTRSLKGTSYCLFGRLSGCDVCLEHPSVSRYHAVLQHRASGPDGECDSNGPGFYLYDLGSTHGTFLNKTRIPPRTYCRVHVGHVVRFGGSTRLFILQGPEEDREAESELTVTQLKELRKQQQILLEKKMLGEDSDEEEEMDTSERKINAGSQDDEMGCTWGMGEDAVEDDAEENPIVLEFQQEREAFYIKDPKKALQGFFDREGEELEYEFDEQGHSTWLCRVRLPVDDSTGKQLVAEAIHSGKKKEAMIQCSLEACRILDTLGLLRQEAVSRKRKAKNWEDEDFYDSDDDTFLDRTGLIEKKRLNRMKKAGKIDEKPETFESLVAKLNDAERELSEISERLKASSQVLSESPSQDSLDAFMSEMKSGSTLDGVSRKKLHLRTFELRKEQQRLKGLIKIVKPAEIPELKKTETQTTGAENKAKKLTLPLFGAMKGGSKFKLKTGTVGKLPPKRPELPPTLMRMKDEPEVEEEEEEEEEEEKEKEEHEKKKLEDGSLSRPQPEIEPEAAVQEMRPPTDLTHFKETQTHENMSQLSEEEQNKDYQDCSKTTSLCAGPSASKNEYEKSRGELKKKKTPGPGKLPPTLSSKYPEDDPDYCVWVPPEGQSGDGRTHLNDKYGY
UniProt Q96CW6: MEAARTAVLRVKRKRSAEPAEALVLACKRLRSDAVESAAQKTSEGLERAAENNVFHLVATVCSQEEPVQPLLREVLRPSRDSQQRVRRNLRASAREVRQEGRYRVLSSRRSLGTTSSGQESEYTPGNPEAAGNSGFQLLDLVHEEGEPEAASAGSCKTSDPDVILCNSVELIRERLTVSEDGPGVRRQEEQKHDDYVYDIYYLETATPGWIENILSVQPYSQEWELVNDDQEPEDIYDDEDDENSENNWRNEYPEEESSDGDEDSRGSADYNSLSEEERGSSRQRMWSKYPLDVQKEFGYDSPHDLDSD
UniProt Q8IYB3: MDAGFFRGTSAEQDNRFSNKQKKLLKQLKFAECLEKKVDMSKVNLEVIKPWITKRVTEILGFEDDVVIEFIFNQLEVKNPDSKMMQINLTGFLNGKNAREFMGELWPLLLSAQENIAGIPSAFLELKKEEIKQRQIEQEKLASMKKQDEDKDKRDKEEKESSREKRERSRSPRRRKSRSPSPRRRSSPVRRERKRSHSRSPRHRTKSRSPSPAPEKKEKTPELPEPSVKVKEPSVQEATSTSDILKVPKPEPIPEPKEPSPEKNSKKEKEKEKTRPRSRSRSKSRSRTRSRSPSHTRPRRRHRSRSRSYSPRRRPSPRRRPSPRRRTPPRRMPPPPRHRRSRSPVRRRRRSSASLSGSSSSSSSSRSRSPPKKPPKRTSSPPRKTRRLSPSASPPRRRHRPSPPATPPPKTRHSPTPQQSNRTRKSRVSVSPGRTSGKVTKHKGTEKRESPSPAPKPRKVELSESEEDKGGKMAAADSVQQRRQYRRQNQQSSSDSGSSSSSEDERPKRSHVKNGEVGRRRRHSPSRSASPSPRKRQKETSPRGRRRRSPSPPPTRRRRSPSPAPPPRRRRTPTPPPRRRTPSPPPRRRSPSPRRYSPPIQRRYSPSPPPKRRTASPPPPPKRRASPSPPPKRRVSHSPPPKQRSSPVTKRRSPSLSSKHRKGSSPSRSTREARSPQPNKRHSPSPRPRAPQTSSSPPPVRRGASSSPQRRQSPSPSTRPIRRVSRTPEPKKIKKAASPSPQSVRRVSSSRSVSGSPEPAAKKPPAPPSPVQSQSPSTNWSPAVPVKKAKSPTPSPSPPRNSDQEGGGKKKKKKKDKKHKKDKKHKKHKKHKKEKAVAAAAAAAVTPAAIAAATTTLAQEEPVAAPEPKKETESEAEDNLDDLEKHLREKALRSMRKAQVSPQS
UniProt Q9UQ35: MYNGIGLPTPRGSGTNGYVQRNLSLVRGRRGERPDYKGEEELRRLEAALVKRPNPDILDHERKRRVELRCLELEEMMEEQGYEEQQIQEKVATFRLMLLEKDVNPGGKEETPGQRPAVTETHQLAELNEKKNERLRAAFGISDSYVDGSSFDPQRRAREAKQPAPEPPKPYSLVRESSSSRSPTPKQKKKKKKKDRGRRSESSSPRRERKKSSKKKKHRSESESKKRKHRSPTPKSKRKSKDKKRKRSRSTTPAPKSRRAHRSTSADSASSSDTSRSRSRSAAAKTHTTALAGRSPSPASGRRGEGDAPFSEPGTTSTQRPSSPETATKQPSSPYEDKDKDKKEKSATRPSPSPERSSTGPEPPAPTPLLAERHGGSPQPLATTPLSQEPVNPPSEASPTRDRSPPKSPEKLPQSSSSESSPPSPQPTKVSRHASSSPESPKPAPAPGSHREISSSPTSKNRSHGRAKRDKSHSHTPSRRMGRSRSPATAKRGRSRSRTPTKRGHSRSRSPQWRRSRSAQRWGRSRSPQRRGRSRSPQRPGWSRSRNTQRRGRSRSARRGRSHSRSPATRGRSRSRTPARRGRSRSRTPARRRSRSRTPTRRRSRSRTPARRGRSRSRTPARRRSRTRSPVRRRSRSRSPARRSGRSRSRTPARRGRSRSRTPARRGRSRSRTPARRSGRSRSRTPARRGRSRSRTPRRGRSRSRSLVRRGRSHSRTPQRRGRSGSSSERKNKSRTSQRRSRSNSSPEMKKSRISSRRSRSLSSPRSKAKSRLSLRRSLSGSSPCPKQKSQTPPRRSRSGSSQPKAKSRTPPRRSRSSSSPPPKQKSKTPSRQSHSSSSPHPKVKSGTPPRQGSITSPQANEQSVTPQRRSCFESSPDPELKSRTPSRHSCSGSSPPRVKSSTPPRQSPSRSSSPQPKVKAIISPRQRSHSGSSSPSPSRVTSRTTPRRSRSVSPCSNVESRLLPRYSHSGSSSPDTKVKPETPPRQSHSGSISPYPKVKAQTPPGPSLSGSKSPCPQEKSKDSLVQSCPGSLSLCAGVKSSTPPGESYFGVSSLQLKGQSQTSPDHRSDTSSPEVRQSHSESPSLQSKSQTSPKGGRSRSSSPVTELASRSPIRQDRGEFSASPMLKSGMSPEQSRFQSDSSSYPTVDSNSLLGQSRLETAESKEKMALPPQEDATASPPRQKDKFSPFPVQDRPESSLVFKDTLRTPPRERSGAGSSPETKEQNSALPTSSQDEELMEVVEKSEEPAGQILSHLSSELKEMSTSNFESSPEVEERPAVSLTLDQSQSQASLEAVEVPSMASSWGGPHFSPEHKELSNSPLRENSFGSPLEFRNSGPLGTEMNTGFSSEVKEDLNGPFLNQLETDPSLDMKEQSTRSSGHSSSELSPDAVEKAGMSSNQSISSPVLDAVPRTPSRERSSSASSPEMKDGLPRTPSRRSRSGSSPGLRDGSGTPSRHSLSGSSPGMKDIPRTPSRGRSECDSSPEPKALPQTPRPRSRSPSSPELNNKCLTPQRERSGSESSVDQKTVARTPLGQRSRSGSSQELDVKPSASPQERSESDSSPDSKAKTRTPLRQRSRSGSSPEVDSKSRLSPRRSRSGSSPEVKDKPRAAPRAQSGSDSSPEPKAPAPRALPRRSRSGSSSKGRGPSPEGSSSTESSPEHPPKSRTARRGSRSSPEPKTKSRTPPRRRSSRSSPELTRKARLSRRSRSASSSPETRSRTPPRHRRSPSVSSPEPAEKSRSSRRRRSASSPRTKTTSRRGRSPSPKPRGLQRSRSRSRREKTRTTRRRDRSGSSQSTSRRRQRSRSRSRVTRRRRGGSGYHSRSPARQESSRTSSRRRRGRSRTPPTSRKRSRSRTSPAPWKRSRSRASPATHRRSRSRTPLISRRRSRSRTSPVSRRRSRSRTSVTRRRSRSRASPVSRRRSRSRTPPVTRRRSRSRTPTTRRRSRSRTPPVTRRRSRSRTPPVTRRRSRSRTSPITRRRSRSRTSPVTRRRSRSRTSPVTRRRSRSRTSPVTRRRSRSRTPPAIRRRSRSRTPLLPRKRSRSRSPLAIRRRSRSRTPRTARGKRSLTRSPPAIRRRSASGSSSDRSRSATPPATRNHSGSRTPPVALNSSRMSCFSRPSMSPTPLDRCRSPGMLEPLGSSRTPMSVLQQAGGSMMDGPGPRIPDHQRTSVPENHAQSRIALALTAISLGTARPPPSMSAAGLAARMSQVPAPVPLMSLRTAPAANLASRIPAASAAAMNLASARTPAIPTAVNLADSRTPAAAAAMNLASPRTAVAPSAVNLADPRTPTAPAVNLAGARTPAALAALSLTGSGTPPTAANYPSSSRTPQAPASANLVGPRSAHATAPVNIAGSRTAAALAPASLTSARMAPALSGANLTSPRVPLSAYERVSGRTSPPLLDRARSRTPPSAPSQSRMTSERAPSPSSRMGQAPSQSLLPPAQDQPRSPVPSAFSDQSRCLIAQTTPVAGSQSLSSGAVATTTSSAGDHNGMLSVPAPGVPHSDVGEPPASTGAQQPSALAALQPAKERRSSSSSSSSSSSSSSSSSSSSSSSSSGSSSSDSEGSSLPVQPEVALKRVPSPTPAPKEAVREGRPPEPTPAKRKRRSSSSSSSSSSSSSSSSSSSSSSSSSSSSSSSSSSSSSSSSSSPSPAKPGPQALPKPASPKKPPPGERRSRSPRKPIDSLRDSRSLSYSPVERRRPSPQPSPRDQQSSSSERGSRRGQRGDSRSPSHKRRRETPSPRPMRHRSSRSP
UniProt Q9UNE7: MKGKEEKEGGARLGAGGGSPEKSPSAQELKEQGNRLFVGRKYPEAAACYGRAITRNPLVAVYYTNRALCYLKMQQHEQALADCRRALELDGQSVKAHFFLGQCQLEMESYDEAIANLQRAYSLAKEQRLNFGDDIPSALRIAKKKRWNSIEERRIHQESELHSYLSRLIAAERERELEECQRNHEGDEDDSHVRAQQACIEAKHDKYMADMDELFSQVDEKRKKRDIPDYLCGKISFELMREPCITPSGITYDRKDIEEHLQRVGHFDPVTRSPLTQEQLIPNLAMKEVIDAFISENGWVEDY
UniProt Q9Y2W1: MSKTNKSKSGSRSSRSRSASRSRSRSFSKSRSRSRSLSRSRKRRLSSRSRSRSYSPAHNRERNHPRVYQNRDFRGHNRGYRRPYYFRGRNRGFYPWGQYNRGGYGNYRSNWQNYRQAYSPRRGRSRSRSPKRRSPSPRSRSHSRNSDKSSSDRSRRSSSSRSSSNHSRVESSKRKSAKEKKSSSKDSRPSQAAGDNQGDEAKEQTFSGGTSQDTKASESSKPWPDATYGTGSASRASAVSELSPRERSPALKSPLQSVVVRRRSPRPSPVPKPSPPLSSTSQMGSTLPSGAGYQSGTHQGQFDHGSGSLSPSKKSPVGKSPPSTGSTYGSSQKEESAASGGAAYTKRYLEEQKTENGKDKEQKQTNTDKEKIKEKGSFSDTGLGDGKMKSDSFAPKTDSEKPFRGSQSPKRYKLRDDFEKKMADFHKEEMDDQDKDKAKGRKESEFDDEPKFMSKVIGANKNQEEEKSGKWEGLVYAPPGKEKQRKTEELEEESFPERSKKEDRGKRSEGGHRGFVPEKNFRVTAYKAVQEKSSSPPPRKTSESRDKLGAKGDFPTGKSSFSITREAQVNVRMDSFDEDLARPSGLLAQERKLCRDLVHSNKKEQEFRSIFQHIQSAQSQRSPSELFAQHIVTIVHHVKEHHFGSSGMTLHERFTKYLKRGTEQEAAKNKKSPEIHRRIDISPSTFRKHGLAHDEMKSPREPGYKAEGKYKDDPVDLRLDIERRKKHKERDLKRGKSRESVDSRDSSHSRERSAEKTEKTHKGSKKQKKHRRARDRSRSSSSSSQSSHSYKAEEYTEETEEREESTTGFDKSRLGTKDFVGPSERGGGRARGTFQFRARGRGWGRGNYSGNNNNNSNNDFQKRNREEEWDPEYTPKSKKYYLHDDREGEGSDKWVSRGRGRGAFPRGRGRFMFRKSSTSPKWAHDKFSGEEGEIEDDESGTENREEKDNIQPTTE
UniProt O14545: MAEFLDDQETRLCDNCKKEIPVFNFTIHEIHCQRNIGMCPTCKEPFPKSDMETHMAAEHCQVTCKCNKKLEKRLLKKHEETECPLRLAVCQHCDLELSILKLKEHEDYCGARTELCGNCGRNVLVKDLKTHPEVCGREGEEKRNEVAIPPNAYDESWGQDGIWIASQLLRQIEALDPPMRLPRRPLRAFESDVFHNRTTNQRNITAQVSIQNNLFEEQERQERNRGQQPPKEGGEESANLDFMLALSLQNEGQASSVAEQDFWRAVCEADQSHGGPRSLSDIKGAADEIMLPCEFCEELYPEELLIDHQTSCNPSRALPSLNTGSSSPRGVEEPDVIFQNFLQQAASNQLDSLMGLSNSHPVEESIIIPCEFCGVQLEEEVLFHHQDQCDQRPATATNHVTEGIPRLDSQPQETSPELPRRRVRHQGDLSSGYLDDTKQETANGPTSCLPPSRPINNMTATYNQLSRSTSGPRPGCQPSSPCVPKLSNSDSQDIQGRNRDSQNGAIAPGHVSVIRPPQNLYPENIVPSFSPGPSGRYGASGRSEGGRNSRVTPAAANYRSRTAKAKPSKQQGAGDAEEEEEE

Compound: CC[C@@H](C)Nc1cc(C(=O)N[C@H]2C[C@H]3CC[C@@H](C2)N3c2ccc(C(=O)C3CC3)cn2)c(C)cc1C(N)=O [XL888]
Assay: phosphopeptide melting temperature shift (XL888 minus DMSO); higher = stabilised by drug treatment
Conditions: 100 µM; treatment time 2 h; layout: intact cells; SK-Mel 24
Protocol: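 Phospho-TPP in intact SK-Mel 24 cells treated with 100 uM XL888 or DMSO for 2 h, heated at 10 temperatures (37-67 C) for 3 min, soluble fraction TMT10plex-labelled and TiO2 phospho-enriched. Melting curves were fitted per phosphopeptide; the value is the melting point difference (drug minus vehicle) in each of two biological replicates.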

Target: RPS2 phosphosite_281 (phosphosite position: 281) (UniProt P15880)
- phosphopeptide melting temperature shift: -2.06 ± 1.6 °C

Target: RSL1D1 phosphosite_427 (phosphosite position: 427) (UniProt O76021)
- phosphopeptide melting temperature shift: 0.127 ± 0.59 °C

Target: RSRC2 phosphosite_4 (phosphosite position: 4) (UniProt Q7L4I2)
- phosphopeptide melting temperature shift: 3.12 ± 3.6 °C

Target: S100A11 phosphosite_6 (phosphosite position: 6) (UniProt P31949)
- phosphopeptide melting temperature shift: 2.86 °C

Target: SASH1 phosphosite_407 (phosphosite position: 407) (UniProt O94885)
- phosphopeptide melting temperature shift: -0.733 °C

Target: SH2B3 phosphosite_150 (phosphosite position: 150) (UniProt Q9UQQ2)
- phosphopeptide melting temperature shift: 3.36 °C

Target: SH3BP1 phosphosite_550 (phosphosite position: 550) (UniProt Q9Y3L3)
- phosphopeptide melting temperature shift: 0.136 ± 0.41 °C

Target: SKP1 phosphosite_131 (phosphosite position: 131) (UniProt P63208)
- phosphopeptide melting temperature shift: 2.93 °C

Target: SLC4A1AP phosphosite_82 (phosphosite position: 82) (UniProt Q9BWU0)
- phosphopeptide melting temperature shift: -0.194 °C

Target: SLC7A6OS phosphosite_168 (phosphosite position: 168) (UniProt Q96CW6)
- phosphopeptide melting temperature shift: 1.69 °C

Target: SLU7 phosphosite_215 (phosphosite position: 215) (UniProt O95391)
- phosphopeptide melting temperature shift: 5.57 °C

Target: SMARCC1 phosphosite_310 (phosphosite position: 310) (UniProt Q92922)
- phosphopeptide melting temperature shift: 0.455 ± 0.85 °C

Target: SND1 phosphosite_426 (phosphosite position: 426) (UniProt Q7KZF4)
- phosphopeptide melting temperature shift: 0.844 °C

Target: SORT1 phosphosite_825 (phosphosite position: 825) (UniProt Q99523)
- phosphopeptide melting temperature shift: -2.02 °C

Target: SP100 phosphosite_157 (phosphosite position: 157) (UniProt P23497)
- phosphopeptide melting temperature shift: 1.45 ± 0.082 °C

Target: SQSTM1 phosphosite_24 (phosphosite position: 24) (UniProt Q13501)
- phosphopeptide melting temperature shift: 1.1 ± 1.6 °C

Target: SRRM1 phosphosite_463 (phosphosite position: 463) (UniProt Q8IYB3)
- phosphopeptide melting temperature shift: 1.79 °C

Target: SRRM1 phosphosite_597 (phosphosite position: 597) (UniProt Q8IYB3)
- phosphopeptide melting temperature shift: 1.56 ± 1.4 °C

Target: SRRM1 phosphosite_695 (phosphosite position: 695) (UniProt Q8IYB3)
- phosphopeptide melting temperature shift: -0.101 °C

Target: SRRM2 phosphosite_323 (phosphosite position: 323) (UniProt Q9UQ35)
- phosphopeptide melting temperature shift: 3.54 °C

Target: SRRM2 phosphosite_333 (phosphosite position: 333) (UniProt Q9UQ35)
- phosphopeptide melting temperature shift: 6.25 °C

Target: SRRM2 phosphosite_353 (phosphosite position: 353) (UniProt Q9UQ35)
- phosphopeptide melting temperature shift: 0.27 °C

Target: SRRM2 phosphosite_914 (phosphosite position: 914) (UniProt Q9UQ35)
- phosphopeptide melting temperature shift: 0.807 °C

Target: SRRM2 phosphosite_1124 (phosphosite position: 1124) (UniProt Q9UQ35)
- phosphopeptide melting temperature shift: 2.94 ± 1.7 °C

Target: SRRM2 phosphosite_1219 (phosphosite position: 1219) (UniProt Q9UQ35)
- phosphopeptide melting temperature shift: 3.24 °C

Target: SRRM2 phosphosite_2397 (phosphosite position: 2397) (UniProt Q9UQ35)
- phosphopeptide melting temperature shift: 0.0483 °C

Target: SRRM2 phosphosite_2398 (phosphosite position: 2398) (UniProt Q9UQ35)
- phosphopeptide melting temperature shift: 0.937 °C

Target: STUB1 phosphosite_19 (phosphosite position: 19) (UniProt Q9UNE7)
- phosphopeptide melting temperature shift: -0.704 °C

Target: STX12 phosphosite_142 (phosphosite position: 142) (UniProt Q86Y82)
- phosphopeptide melting temperature shift: -0.714 ± 2 °C

Target: TALDO1 phosphosite_237 (phosphosite position: 237) (UniProt P37837)
- phosphopeptide melting temperature shift: 2.05 °C

Target: TERF2IP phosphosite_203 (phosphosite position: 203) (UniProt Q9NYB0)
- phosphopeptide melting temperature shift: 0.538 °C

Target: THRAP3 phosphosite_243 (phosphosite position: 243) (UniProt Q9Y2W1)
- phosphopeptide melting temperature shift: 4.38 ± 1.4 °C

Target: THRAP3 phosphosite_535 (phosphosite position: 535) (UniProt Q9Y2W1)
- phosphopeptide melting temperature shift: -2.37 °C

Target: THRAP3 phosphosite_672 (phosphosite position: 672) (UniProt Q9Y2W1)
- phosphopeptide melting temperature shift: 1.5 ± 0.1 °C

Target: TPD52L2 phosphosite_21 (phosphosite position: 21) (UniProt O43399)
- phosphopeptide melting temperature shift: 1.93 ± 0.39 °C

Target: TRAFD1 phosphosite_415 (phosphosite position: 415) (UniProt O14545)
- phosphopeptide melting temperature shift: -1.48 °C

Target: TRIM28 phosphosite_489 (phosphosite position: 489) (UniProt Q13263)
- phosphopeptide melting temperature shift: -0.33 ± 0.045 °C

Target: UBE2O phosphosite_896 (phosphosite position: 896) (UniProt Q9C0C9)
- phosphopeptide melting temperature shift: 0.303 °C

Target: UBXN7 phosphosite_280 (phosphosite position: 280) (UniProt O94888)
- phosphopeptide melting temperature shift: 0.894 ± 0.36 °C

Target: UniProt A0MZ66-7_phosphosite_94 (phosphosite position: 94)
- phosphopeptide melting temperature shift: -0.292 °C

Target: UniProt A4D1E1_phosphosite_877 (phosphosite position: 877)
- phosphopeptide melting temperature shift: 2.49 °C

Target: UniProt O00499-9_phosphosite_267 (phosphosite position: 267)
- phosphopeptide melting temperature shift: 1.12 °C

Target: UniProt O00567_phosphosite_520 (phosphosite position: 520)
- phosphopeptide melting temperature shift: 0.242 °C

Target: UniProt O14617-2_phosphosite_738 (phosphosite position: 738)
- phosphopeptide melting temperature shift: 0.904 °C

Target: UniProt O15344-2_phosphosite_96 (phosphosite position: 96)
- phosphopeptide melting temperature shift: 0.289 °C

Target: UniProt O43236-5_phosphosite_178 (phosphosite position: 178)
- phosphopeptide melting temperature shift: 2.53 °C

Target: UniProt O43314-2_phosphosite_1151 (phosphosite position: 1151)
- phosphopeptide melting temperature shift: -0.0417 ± 0.58 °C

Target: UniProt O43432_phosphosite_495 (phosphosite position: 495)
- phosphopeptide melting temperature shift: -0.712 ± 0.8 °C

Target: UniProt O60343-2_phosphosite_588 (phosphosite position: 588)
- phosphopeptide melting temperature shift: 0.724 ± 0.024 °C

Target: UniProt O60504-2_phosphosite_188 (phosphosite position: 188)
- phosphopeptide melting temperature shift: 3.63 °C

Target: UniProt O60504-2_phosphosite_203 (phosphosite position: 203)
- phosphopeptide melting temperature shift: 0.906 ± 0.2 °C

Target: UniProt O60524-4_phosphosite_375 (phosphosite position: 375)
- phosphopeptide melting temperature shift: 0.798 °C

Target: UniProt O75592-2_phosphosite_2751 (phosphosite position: 2751)
- phosphopeptide melting temperature shift: 0.601 °C

Target: UniProt O94762-4_phosphosite_788 (phosphosite position: 788)
- phosphopeptide melting temperature shift: 1.59 °C
